In the supplement of paper PMC11006884:
This list holds what a sample rich in targets with a hit left over. The data scatter; read single values as rough. The list shows a part of the results, in another mix than the full data.

Protein sequences, listed by entry. Tags and fused reporters are not part of them. Lines headed by an entry give the natural chain unless they say otherwise; changes in a name come on top.
UniProt Q15005: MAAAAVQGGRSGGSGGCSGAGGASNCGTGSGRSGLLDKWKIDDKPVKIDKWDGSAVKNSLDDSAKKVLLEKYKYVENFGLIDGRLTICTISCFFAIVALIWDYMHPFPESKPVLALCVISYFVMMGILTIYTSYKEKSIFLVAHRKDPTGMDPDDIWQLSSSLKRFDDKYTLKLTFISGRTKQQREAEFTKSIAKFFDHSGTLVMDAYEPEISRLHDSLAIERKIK
UniProt Q14980: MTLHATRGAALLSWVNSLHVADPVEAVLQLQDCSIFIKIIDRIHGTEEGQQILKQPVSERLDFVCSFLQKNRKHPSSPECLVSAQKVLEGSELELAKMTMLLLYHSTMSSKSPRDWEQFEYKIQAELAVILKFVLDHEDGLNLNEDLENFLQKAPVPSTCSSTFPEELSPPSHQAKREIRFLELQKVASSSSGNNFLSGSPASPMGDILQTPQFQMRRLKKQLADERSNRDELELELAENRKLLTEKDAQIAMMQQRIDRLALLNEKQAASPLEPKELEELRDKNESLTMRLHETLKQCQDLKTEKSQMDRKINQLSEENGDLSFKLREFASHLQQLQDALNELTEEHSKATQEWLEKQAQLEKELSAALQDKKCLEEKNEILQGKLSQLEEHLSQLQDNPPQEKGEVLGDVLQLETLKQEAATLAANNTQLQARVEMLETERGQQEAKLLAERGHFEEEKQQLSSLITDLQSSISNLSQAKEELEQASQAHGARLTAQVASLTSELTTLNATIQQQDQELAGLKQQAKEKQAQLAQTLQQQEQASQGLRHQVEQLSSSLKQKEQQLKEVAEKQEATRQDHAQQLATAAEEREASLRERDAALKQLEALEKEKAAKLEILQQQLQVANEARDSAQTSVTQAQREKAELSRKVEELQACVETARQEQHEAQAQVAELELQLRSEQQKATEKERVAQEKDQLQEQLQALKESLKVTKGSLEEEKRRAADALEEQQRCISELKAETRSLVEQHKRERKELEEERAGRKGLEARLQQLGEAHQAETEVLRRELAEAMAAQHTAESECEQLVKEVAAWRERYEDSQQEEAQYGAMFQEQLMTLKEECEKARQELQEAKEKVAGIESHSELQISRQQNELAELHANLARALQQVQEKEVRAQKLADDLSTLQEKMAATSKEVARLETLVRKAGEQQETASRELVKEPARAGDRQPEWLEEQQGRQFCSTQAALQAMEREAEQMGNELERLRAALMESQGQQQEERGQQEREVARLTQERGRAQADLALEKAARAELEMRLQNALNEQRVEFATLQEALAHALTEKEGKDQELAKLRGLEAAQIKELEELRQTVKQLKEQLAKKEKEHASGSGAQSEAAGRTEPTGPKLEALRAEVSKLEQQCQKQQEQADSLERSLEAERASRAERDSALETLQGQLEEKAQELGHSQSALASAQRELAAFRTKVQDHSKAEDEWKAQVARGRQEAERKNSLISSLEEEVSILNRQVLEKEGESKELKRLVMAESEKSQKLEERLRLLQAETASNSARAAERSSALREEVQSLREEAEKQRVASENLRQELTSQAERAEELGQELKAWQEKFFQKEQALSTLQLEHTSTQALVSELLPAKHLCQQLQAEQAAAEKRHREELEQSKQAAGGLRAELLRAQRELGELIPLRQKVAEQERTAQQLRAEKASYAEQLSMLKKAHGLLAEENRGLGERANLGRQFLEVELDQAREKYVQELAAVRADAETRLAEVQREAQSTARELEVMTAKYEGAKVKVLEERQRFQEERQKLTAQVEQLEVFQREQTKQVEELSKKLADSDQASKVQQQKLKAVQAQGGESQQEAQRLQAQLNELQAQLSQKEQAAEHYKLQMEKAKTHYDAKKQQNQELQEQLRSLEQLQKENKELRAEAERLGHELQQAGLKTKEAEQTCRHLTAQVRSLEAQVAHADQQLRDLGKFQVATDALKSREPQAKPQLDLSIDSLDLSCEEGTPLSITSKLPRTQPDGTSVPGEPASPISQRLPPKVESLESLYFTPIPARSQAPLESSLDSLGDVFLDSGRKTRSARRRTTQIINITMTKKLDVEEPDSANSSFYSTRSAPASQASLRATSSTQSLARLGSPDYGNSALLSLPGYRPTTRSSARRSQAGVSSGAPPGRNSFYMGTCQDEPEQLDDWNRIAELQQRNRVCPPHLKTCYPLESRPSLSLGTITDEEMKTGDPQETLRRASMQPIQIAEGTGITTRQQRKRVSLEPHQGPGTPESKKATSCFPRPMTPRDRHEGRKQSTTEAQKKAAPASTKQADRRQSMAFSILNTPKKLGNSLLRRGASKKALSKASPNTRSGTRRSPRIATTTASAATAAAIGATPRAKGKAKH
UniProt Q13642: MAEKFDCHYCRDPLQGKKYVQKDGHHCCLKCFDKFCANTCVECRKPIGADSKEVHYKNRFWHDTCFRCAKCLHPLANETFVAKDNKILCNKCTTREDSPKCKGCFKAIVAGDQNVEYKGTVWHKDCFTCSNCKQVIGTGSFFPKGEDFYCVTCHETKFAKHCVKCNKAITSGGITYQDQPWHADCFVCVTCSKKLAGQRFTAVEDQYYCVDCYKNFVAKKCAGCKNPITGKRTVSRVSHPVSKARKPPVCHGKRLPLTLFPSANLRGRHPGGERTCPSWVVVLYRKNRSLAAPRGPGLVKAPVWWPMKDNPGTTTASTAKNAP
UniProt Q13564: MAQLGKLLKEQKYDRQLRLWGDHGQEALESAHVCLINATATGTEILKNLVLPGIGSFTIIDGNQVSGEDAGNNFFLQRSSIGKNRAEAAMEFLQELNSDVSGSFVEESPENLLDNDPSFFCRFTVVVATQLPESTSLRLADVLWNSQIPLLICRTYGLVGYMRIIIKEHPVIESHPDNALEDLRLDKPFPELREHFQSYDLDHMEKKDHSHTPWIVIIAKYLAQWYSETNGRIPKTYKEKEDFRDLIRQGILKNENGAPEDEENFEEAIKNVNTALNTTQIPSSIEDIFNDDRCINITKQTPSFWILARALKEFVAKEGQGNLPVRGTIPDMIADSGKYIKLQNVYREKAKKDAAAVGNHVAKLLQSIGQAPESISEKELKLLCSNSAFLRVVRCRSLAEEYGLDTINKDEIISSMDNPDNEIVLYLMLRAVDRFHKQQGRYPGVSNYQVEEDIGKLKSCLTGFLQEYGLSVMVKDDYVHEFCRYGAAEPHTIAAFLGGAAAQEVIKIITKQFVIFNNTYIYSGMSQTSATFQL
UniProt Q14738, whole entry: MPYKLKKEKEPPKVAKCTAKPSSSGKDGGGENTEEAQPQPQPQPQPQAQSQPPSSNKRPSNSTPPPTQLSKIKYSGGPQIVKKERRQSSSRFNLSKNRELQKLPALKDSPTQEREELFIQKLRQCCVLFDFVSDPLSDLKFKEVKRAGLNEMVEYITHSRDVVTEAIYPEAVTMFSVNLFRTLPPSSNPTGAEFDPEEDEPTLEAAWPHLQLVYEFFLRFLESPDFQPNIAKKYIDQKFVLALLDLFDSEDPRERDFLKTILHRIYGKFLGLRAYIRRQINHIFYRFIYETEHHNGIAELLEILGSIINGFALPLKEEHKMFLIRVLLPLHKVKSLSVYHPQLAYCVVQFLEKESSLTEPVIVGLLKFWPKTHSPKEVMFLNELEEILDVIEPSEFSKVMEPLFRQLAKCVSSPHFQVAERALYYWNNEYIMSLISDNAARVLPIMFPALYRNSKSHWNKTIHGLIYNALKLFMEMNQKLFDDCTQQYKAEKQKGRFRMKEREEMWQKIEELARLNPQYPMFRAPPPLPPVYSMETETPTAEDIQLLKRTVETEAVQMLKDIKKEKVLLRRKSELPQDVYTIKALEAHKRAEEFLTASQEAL
UniProt Q14573, whole entry, looked up: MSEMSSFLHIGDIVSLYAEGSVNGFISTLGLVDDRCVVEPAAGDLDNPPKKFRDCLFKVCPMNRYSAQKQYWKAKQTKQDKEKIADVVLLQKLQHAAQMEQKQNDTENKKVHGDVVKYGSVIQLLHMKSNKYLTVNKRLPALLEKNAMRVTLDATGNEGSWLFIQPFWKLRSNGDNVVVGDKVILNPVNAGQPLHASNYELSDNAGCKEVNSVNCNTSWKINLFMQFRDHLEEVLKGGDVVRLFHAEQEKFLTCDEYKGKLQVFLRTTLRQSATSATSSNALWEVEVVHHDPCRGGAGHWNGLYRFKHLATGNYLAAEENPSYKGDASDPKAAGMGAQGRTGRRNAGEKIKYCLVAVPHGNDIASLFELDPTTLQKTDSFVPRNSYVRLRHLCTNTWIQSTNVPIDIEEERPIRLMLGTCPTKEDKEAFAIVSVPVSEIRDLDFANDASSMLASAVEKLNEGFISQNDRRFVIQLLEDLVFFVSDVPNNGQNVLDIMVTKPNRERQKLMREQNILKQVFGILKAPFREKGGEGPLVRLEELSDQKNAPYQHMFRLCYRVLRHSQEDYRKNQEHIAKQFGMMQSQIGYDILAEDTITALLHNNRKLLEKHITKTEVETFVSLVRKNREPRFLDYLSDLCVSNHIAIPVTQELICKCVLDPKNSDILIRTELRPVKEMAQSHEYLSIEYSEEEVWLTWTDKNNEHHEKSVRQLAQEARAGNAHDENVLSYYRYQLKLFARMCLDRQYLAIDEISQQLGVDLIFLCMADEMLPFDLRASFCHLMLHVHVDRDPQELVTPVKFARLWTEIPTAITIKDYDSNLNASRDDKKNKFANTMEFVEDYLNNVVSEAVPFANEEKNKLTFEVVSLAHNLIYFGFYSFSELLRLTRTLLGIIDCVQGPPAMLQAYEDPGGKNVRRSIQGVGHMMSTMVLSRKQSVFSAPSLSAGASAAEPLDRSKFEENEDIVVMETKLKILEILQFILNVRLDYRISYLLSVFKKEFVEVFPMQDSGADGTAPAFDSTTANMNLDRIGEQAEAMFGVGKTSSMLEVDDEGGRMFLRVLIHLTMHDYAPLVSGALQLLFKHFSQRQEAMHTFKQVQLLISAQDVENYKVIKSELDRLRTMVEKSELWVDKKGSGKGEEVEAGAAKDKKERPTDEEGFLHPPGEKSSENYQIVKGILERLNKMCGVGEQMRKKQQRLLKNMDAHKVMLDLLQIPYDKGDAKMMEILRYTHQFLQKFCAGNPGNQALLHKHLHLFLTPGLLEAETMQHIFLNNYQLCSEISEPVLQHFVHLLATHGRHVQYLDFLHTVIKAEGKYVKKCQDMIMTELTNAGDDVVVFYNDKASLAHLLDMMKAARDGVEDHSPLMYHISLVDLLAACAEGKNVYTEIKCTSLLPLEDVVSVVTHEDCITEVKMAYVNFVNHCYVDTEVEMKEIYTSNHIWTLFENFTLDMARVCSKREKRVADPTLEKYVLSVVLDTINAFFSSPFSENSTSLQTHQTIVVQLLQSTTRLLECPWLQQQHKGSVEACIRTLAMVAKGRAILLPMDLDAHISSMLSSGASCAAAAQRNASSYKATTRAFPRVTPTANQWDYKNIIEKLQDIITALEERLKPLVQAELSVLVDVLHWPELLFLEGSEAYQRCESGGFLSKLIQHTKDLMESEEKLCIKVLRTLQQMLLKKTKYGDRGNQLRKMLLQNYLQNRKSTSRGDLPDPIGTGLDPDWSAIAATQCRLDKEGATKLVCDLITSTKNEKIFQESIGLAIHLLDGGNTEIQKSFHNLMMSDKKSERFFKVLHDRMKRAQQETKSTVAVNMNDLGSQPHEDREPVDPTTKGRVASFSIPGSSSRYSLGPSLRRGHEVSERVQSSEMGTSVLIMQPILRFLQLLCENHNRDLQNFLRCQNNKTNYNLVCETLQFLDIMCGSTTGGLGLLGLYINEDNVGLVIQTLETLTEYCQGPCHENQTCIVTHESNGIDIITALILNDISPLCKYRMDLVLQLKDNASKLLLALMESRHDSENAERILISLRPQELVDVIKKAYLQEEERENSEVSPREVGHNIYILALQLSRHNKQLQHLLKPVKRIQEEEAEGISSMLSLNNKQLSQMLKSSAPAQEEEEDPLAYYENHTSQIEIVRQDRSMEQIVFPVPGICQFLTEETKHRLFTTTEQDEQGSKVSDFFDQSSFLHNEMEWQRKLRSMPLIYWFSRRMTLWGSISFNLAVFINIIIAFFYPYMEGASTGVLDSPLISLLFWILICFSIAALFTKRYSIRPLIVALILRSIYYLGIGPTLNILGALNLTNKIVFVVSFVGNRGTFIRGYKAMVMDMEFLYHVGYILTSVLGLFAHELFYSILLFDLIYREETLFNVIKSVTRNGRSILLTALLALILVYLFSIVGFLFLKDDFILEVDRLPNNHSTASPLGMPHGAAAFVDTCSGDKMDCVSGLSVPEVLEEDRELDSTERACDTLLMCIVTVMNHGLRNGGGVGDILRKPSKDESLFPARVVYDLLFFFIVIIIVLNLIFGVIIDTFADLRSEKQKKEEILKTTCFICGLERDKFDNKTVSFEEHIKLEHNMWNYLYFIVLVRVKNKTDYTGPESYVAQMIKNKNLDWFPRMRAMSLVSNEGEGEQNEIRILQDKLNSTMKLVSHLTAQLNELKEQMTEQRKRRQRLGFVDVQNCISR
UniProt Q15004: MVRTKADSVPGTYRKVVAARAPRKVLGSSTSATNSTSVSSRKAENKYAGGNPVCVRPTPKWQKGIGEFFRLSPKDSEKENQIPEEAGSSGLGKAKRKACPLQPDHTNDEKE

compound: COC(=O)/C=C/c1ccccc1 [methyl cinnamate]; assay: log2 ratio of iodoacetamide-alkyne labeling of the cysteine site, DMSO over compound (competition); higher = stronger covalent engagement of the cysteine by the compound, active = 1 or more; conditions: 500 µM; treatment time 1 h; system: HEK293T cell lysate
Procedure, shortened: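 HEK293T lysate at 2 mg/mL was treated with vehicle or electrophile (500 µM) for 1 h at ambient temperature, then labelled with iodoacetamide alkyne (1 h), clicked to sCIP-TMT reagents, pooled, digested with trypsin overnight at 37 °C, enriched on streptavidin and eluted with acid. Peptides were analysed by Orbitrap Eclipse LC-MS/MS with FAIMS and quantified in FragPipe, using duplicate channels and three replicates, with cysteines quantified in only one replicate excluded. The log2 competition ratio for each cysteine is the mean control-channel reporter intensity divided by the mean compound-channel reporter intensity.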

log2 ratio of iodoacetamide-alkyne labeling, inactive:
URB2 C1132 (UniProt Q14146) -0.187
MORF4L2 C165 (UniProt Q15014) 0.217
DYNC1H1 C633 (UniProt Q14204) 0.315
SPCS2 C26 (UniProt Q15005) 0.466
PDCD11 C151 (UniProt Q14690) 0.264
KRR1 C102 (UniProt Q13601) -0.00121
NUMA1 C1937 (UniProt Q14980) 0.227
UniProt Q13885_C303 0.138
GANAB C822 (UniProt Q14697) -0.00764
UBE4A C710 (UniProt Q14139) -0.103
FHL1 C191 (UniProt Q13642) 0.061
SPTAN1 C1622 (UniProt Q13813) 0.239
PUM1 C234 (UniProt Q14671) 0.0227
CKAP5 C1500 (UniProt Q14008) 0.0908
TTLL12 C361 (UniProt Q14166) -0.071
BMS1 C895 (UniProt Q14692) 0.0419
DYNC1H1 C1888 (UniProt Q14204) 0.11
UBE4A C989 (UniProt Q14139) 0.23
CUL2 C721 (UniProt Q13617) -0.171
EIF4EBP2 C73 (UniProt Q13542) -0.108
NAE1 C384 (UniProt Q13564) 0.0783
SQSTM1 C113 (UniProt Q13501) 0.136
PPP2R5D C17 (UniProt Q14738) 0.551
NCAPD2 C1249 (UniProt Q15021) -0.422
DIP2A C252 (UniProt Q14689) 0.305
GAPVD1 C1129 (UniProt Q14C86) 0.383
UniProt Q15019_C114 -0.124
HLTF C812 (UniProt Q14527) 0.0644
GANAB C502 (UniProt Q14697) 0.011
RBM39 C478 (UniProt Q14498) -0.0233
ITPR3 C2668 (UniProt Q14573) 0.113
NUMA1 C658 (UniProt Q14980) 0.187
FHL1 C36 (UniProt Q13642) 0.129
CAMK2G C453 (UniProt Q13555) -0.0374
FHL1 C132 (UniProt Q13642) -0.0307
UniProt Q15004_C54 0.362
NCAPH C316 (UniProt Q15003) -0.237

Copied from the listing for reference:
log2 ratio of iodoacetamide-alkyne labeling, inactive:
NUMA1 C658 (UniProt Q14980) 0.187
FHL1 C36 (UniProt Q13642) 0.129
